In patent publication US20170240920A1:
No constants are given. Whether binding was seen depends on the method and setting. Some binding calls cover weakened binding; strength is not graded here. Sequences can lack the tags named with a protein.

Assays:
[1] = target: Streptavidin (Streptomyces avidinii) (UniProt P22629); assay: flow cytometry, Streptavidin-APC staining of transfected HEK 293T cells
[2] = target: Streptavidin (Streptomyces avidinii) (UniProt P22629); assay: sorting of transduced K562 cells with Streptavidin Dynabeads
[3] = target: Streptavidin (Streptomyces avidinii) (UniProt P22629); assay: cell sorting and capture of tagged lentivirus with streptavidin beads
[4] = target: Streptavidin (Streptomyces avidinii) (UniProt P22629); assay: sorting of transduced K562 cells with streptavidin beads; Streptavidin-APC flow cytometry

Measured: binding

AECHPQGPPCIEGRK (peptide, not shown: small tags and cut ends) [Flankedccstreptag-CD8stalk]
binds: all assays above
